PubChem BioAssay AID1259292 – Sanger Institute, 2017
Purpose: 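Kinase genes whose knock-down synergises with trametinib, cetuximab or BYL719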 (follow-up of hits). Cell system: human colorectal cancer RCM1 cells. Knock-down reagent: single siRNA against human genes. Conditions: anchor drugs BYL719 at 1 µM, cetuximab at 5 µg/ml or trametinib at 10 nM, or DMSO vehicle; exposure time not given. Measured: 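Replicate-averaged viability as a fraction of non-targeting pool 2 wells, under DMSO, BYL719 1 µM, cetuximab 5 µg/ml or trametinib 10 nM (time unstated), plus a synergy score for each drug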. Scale: synergy score with trametinib and synergy score with cetuximab and synergy score with BYL719: higher = stronger combined killing beyond expected (synthetic lethal). Hit rule: 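Synergy called if the score for BYL719, cetuximab or trametinib, any one of them, exceeds 0.10; genes below this for all three show no synergy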. Meaning of the calls: active = synergy with at least one anchor drug; inactive = no synergy with any anchor drug.
In all, the deposit lists 160 reagents; below is a part drawn at random. 64 of all reagents (40%) were called active. 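Four separate siRNAs per gene; a call can rest on any single drug, so look at each drug's score.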 The numbers tell different reagents against one gene apart. Not all columns of the deposit are shown. Reagent sequences are not shown. Not given: the amount of reagent, the time to read-out.

target gene | reagent | synergy score with trametinib | synergy score with cetuximab | synergy score with BYL719 | activity call
GTF2H1 (general transcription factor IIH subunit 1) | 1 | 0.0514 | -0.0522 | 0.0171 | inactive
GTF2H1 (general transcription factor IIH subunit 1) | 2 | -0.257 | -0.0686 | -0.162 | inactive
GTF2H1 (general transcription factor IIH subunit 1) | 3 | -0.114 | 0.0112 | -0.182 | inactive
GTF2H1 (general transcription factor IIH subunit 1) | 4 | 0.05 | -0.0405 | -0.0609 | inactive
ACVR1 (activin A receptor type 1) | 1 | -0.0759 | -0.0686 | -0.162 | inactive
ACVR1 (activin A receptor type 1) | 2 | 0.0829 | -0.0338 | -0.059 | inactive
ACVR1 (activin A receptor type 1) | 3 | 0.1 | -0.0686 | -0.162 | inactive
ACVR1 (activin A receptor type 1) | 4 | 0.158 | -0.0602 | -0.162 | active
NLK (nemo like kinase) | 1 | -0.159 | 0.0497 | -0.168 | inactive
NLK (nemo like kinase) | 2 | 0.223 | 0.00738 | 0.0344 | active
NLK (nemo like kinase) | 3 | -0.0771 | -0.22 | -0.305 | inactive
NLK (nemo like kinase) | 4 | -0.159 | -0.0686 | -0.103 | inactive

Continued (3 carried over from the part before).
target gene | reagent | synergy score with trametinib | synergy score with cetuximab | synergy score with BYL719 | activity call
NLK (nemo like kinase) | 2 | 0.223 | 0.00738 | 0.0344 | active
NLK (nemo like kinase) | 3 | -0.0771 | -0.22 | -0.305 | inactive
NLK (nemo like kinase) | 4 | -0.159 | -0.0686 | -0.103 | inactive
IRAK3 (interleukin 1 receptor associated kinase 3) | 1 | -0.0136 | 0.013 | -0.102 | inactive
IRAK3 (interleukin 1 receptor associated kinase 3) | 2 | 0.172 | 0.00542 | -0.0274 | active
IRAK3 (interleukin 1 receptor associated kinase 3) | 3 | 0.0604 | -0.0026 | -0.00981 | inactive
IRAK3 (interleukin 1 receptor associated kinase 3) | 4 | -0.0148 | -0.0796 | -0.228 | inactive
HSPB8 (heat shock protein family B (small) member 8) | 1 | 0.306 | -0.0686 | -0.162 | active
HSPB8 (heat shock protein family B (small) member 8) | 2 | -0.347 | -0.0686 | -0.162 | inactive
HSPB8 (heat shock protein family B (small) member 8) | 3 | -0.0364 | -0.0875 | -0.213 | inactive
HSPB8 (heat shock protein family B (small) member 8) | 4 | 0.1 | 0.132 | -0.147 | active
STK36 (serine/threonine kinase 36) | 1 | 0.14 | 0.0244 | -0.139 | active
STK36 (serine/threonine kinase 36) | 2 | -0.042 | -0.0686 | -0.162 | inactive
STK36 (serine/threonine kinase 36) | 3 | -0.0335 | 0.0247 | -0.149 | inactive
STK36 (serine/threonine kinase 36) | 4 | -0.138 | -0.0879 | -0.0398 | inactive
PINK1 (PTEN induced kinase 1) | 1 | 0.0649 | -0.0686 | -0.162 | inactive
PINK1 (PTEN induced kinase 1) | 2 | 0.372 | 0.125 | 0.128 | active
PINK1 (PTEN induced kinase 1) | 3 | 0.122 | 0.0238 | -0.00659 | active
PINK1 (PTEN induced kinase 1) | 4 | 0.125 | 0.204 | -0.024 | active
KCNH8 (potassium voltage-gated channel subfamily H member 8) | 1 | 0.151 | -0.106 | -0.103 | active
KCNH8 (potassium voltage-gated channel subfamily H member 8) | 2 | 0.28 | 0.123 | -0.0864 | active
KCNH8 (potassium voltage-gated channel subfamily H member 8) | 3 | -0.038 | -0.0686 | -0.162 | inactive
KCNH8 (potassium voltage-gated channel subfamily H member 8) | 4 | 0.104 | 0.048 | -0.00939 | active
MAPKAPK2 (MAPK activated protein kinase 2) | 1 | -0.193 | -0.0686 | -0.162 | inactive
MAPKAPK2 (MAPK activated protein kinase 2) | 2 | 0.0201 | -0.0686 | -0.132 | inactive
MAPKAPK2 (MAPK activated protein kinase 2) | 3 | 0.0332 | -0.0541 | 0.112 | active
MAPKAPK2 (MAPK activated protein kinase 2) | 4 | -0.0357 | 0.0108 | -0.0966 | inactive
